For some of these results: For at least one compound, name, drawing or mass did not settle the structure. Some of these results come from one statement about several compounds together.
How the values were obtained:
[1] = Stability in pooled BALB/c mouse plasma; settings: up to 1 h incubation at 37° C.
[2] = test system: BzATP-induced release of IL-1β by human monocytic THP-1 cells; experiment: BzATP-induced release of IL-1β by LPS-primed monocytic THP-1 cells (ELISA)

SMILES | stable (remaining) in murine plasma [1] | inhibition of BzATP-induced release of IL-1β ([2]; LPS-primed THP-1 cells, BzATP, ACh at 10 μM) | release of IL-1β in the absence of BzATP ([2]; THP-1 cells primed with LPS, no BzATP)
CC[N+]1(C)CCN(c2ccc(NC(=O)c3cccc(C)n3)cc2)CC1 [Compound II, 1-Ethyl-1-methyl-4-(4-(6-methylpicolinamido)phenyl)piperazin-1-ium iodide] | > 90% | – | –
CC(=O)OCC[N+](C)(C)C [ACh, acetylcholine, reference compound] | – | significantly reduced | neither ACh nor compounds APA, 3f, or II induced the release of IL-1β
CC[N+]1(C)CCN(c2ccc(C(=O)Nc3cccc(C)n3)cc2)CC1 [Compound 3f, reference compound] | > 90% | – | –
